No constants are given. Whether binding was seen depends on the method and setting. Binding can be weak; no strength is given. Tags and fused reporters may be left off the sequences shown.
Target: T1, RETINOBLASTOMA RELATED (RBR), Arabidopsis, yeast two-hybrid fusion in pDEST32 (Arabidopsis thaliana) (UniProt Q9LKZ3)
T1 sequence: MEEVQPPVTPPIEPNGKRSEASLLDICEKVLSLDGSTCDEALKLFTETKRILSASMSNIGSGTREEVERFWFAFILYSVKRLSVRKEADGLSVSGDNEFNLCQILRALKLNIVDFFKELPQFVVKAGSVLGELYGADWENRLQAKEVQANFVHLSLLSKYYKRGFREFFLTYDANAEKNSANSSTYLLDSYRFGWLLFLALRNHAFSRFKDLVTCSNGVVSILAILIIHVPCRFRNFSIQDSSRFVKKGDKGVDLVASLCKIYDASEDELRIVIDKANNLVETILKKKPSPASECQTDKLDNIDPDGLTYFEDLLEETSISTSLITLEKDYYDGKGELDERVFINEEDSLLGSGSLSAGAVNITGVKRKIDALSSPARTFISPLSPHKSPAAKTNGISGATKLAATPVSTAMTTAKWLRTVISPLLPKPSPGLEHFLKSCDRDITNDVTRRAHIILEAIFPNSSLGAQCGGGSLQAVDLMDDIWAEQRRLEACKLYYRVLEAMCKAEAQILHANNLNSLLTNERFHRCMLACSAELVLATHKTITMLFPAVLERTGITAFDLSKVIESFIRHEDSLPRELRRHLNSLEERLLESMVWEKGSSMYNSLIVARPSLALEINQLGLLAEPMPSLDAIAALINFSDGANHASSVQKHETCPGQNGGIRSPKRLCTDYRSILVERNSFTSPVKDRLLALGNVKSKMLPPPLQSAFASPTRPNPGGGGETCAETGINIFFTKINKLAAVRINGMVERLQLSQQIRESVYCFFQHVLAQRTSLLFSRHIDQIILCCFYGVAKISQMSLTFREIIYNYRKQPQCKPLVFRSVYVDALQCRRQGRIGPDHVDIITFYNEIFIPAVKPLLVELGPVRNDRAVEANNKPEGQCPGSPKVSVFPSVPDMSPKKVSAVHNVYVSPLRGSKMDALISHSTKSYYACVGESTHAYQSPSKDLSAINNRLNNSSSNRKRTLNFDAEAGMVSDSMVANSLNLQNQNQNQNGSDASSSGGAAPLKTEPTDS
Assay: two-hybrid

For “M. polymorpha DCL3 ortholog, yeast two-hybrid fusion”, the binding was “binds”.

Reference: publication doi:10.1101/2022.01.06.474281
